Test results reported in patent US20230220057A1 (STAIDSON BEIJING BIOPHARMACEUTICALS, published 2023).
These are yes or no findings as the source states them, for the method shown. Some binding calls cover weakened binding; strength is not graded here.

Amino acid sequences for entries named in this document (tags omitted). A change or cut given only in a name is not applied to a line headed by its entry.
UniProt P01138: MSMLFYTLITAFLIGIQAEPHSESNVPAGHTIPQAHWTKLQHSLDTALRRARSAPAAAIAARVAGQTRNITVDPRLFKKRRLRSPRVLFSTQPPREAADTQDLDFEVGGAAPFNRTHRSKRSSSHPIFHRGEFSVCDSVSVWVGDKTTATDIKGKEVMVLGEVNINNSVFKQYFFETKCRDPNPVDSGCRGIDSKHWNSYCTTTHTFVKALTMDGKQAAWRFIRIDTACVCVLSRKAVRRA

B1: Ab50 (antibody, human IgG1, V domains shown)
VH: EVQLVQSGAEVKKPGESLKISCKGSGYSFITYWISWVRQMPGKGLEWMGAIDPSDSDARYSPSFQGQVTISADKSISTAYLQWSSLKASDTAMYYCAKSDPGYSGYSLLYGFDSWGQGTLVTVSS
VL: DIVMTQSPLSLPVTLGQPASISCRSSQSLVQRNGNTYLSWFQQRPGQPPRLLIYQVSNRYSGVPDRFSGSGSGTDFTLKISRVEAEDVGVYYCGQGAHLPLTFGQGTKVEIK
B2: Ab51 (antibody, human IgG1, V domains shown)
VH: EVQLVQSGAEVKKPGESLKISCKISGYSFITYWISWVRQMPGKGLEWMGAIDPSDSDARYSPSFQGQVTISADKSISTAYLQWSSLKASDTAMYYCAKSDPGYSGYSLLYGFDSWGQGTLVTVSS
VL: DIVMTQTPLSSPVTLGQPASISCRSSQSLVQRNGNTYLSWLQQRPGQPPRLLIYQVSNRYSGVPDRFSGSGAGTDFTLKISRVEAEDVGVYYCGQGAHLPLTFGQGTKVEIK
B3: Ab53 (antibody, human IgG1, V domains shown)
VH: EVQLVQSGAEVKKPGESLKISCKISGYSFITYWISWVRQMPGKGLEWMGAIDPSDSDARYSPSFQGQVTISADKSISTAYLQWSSLKASDTAMYYCAKSDPGYSGYSLLYGFDSWGQGTLVTVSS
VL: DVVMTQSPLSLPVTLGQPASISCRSSQSLVQRNGNTYLSWFQQRPGQSPRLLIYQVSNRYSGVPDRFSGSGSGTDFTLKISRVEAEDVGVYYCGQGAHLPLTFGQGTKVEIK
B4: Ab55 (antibody, human IgG1, V domains shown)
VH: EVQLVQSGAEVKKPGESLKISCKISGYSFITYWISWVRQMPGKGLEWMGAIDPSDSDARYSPSFQGQVTISADKSISTAYLQWSSLKASDTAMYYCAKSDPGYSGYSLLYGFDSWGQGTLVTVSS
VL: DVVMTQSPLSLPVTLGQPASISCRSSQSLVQRNGNTYLSWYQQRPGQPPRLLIYQVSNRYSGVPDRFSGSGSGTDFTLKISRVEAEDVGVYYCGQGAHLPLTFGQGTKVEIK
B5: Ab57 (antibody, human IgG1, V domains shown)
VH: EVQLVQSGAEVKKPGESLKISCKISGYSFITYWISWVRQMPGKGLEWMGAIDPSDSDARYSPSFQGQVTISADKSISTAYLQWSSLKASDTAMYYCAKSDPGYSGYSLLYGFDSWGQGTLVTVSS
VL: DIVMTQSPLSLPVTLGQPASISCRSSQSLVQRNGNTYLSWFQQRPGQSPRLLIYQVSNRYSGVPDRFSGSGSGTDFTLKISRVEAEDVGVYYCGQGAHLPLTFGQGTKVEIK
B6: Ab60 (antibody, human IgG1, V domains shown)
VH: EVQLVQSGAEVKKPGESLKISCKISGYSFITYWISWVRQMPGKGLEWMGAIDPSDSDARYSPSFQGQVTISADKSISTAYLQWSSLKASDTAMYYCAKSDPGYSGYSLLYGFDSWGQGTLVTVSS
VL: DIVMTQSPLSLPVTLGQPASISCRSSQSLVQRNGNTYLSWFQQRPGQPPRLLIYQVSNRYSGVPDRFSGSGSGTDFTLKISRVEAEDVGVYYCGQGAHLPLTFGQGTKVEIK
B7: Ab59 (antibody, human IgG1, V domains shown)
VH: EVQLVQSGAEVKKPGESLKISCKISGYSFITYWISWVRQMPGKGLEWMGAIDPSDSDARYSPSFQGQVTISADKSISTAYLQWSSLKASDTAMYYCAKSDPGYSGYSLLYGFDSWGQGTLVTVSS
VL: DIVMTQSPLSLPVTLGQPASISCRSSQSLVQRNGNTYLSWYQQRPGQPPRLLIYQVSNRYSGVPDRFSGSGSGTDFTLKISRVEAEDVGVYYCGQGAHLPLTFGQGTKVEIK
B8: Ab42 (antibody, human IgG1, V domains shown)
VH: EVQLVQSGAEVKKPGESLKISCKGSGYSFITYWISWVRQMPGKGLEWMGAIDPSDSDARYSPSFQGQVTISADKSISTAYLQWSSLKASDTAMYYCAKSDPGYSGYSLLYGFDSWGQGTLVTVSS
VL: DIVMTQTPLSSPVTLGQPASISCRSSQSLVQRNGNTYLSWYQQRPGQPPRLLIYQVSNRYSGVPDRFSGSGAGTDFTLKISRVEAEDVGVYYCGQGAHLPLTFGQGTKVEIK

target: recombinantly produced human-NGF (human, UniProt P01138 122-241, limits assumed); test: NGF binding ELISA

binding, binds:
B1
B2
B3
B4
B5
B6
B7
B8
